{"sequences": {"note": "Protein sequences, listed by entry. Tags and fused reporters are not part of them. Lines headed by an entry give the natural chain unless they say otherwise; changes in a name come on top.", "UniProt Q15831": "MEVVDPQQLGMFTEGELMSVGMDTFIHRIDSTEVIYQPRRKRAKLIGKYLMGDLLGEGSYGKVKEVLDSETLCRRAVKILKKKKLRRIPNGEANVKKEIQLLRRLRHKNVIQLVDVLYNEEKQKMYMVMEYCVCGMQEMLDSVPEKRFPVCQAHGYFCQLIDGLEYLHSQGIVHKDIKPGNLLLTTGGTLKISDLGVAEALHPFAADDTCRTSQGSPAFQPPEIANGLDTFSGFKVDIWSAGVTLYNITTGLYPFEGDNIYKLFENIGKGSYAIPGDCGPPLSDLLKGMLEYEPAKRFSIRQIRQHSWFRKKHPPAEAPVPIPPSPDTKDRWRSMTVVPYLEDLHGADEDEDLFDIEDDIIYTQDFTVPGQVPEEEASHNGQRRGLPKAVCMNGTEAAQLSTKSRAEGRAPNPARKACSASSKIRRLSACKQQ", "UniProt P06239": "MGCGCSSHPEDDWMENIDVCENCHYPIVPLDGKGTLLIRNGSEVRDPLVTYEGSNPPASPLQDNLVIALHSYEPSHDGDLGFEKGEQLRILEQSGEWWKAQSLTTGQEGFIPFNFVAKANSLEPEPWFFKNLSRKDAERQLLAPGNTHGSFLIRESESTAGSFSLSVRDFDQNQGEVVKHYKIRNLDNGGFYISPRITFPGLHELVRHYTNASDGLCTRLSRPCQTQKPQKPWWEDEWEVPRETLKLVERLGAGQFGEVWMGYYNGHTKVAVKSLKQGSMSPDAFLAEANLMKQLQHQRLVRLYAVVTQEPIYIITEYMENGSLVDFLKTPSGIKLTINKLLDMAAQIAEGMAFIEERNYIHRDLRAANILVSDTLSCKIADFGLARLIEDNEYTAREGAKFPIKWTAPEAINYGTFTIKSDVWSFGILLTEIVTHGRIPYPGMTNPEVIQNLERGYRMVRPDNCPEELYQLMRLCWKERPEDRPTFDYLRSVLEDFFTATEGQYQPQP", "UniProt P07948": "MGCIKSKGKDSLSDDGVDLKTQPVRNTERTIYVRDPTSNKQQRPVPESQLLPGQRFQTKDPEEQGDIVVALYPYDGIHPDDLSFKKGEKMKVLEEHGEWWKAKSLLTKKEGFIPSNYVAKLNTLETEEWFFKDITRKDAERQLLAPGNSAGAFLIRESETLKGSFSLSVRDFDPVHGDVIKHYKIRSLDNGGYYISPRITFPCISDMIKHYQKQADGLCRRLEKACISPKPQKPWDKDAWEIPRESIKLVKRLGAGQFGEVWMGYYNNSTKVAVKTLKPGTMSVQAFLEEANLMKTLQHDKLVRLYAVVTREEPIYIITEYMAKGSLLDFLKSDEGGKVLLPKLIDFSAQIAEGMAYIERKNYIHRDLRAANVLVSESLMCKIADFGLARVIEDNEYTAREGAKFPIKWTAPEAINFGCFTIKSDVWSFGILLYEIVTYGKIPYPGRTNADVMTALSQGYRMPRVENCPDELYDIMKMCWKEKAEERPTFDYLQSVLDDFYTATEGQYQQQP", "UniProt Q16644, whole entry, looked up": "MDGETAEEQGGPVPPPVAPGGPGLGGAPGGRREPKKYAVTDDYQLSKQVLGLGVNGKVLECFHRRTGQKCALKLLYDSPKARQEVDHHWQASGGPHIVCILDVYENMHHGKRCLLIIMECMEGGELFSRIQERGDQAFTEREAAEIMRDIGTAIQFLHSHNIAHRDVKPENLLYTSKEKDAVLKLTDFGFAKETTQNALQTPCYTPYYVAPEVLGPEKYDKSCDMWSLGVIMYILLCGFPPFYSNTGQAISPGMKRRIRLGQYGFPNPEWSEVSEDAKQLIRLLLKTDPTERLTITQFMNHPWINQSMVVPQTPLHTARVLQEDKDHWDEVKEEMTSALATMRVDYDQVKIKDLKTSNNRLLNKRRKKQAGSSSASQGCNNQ", "UniProt Q8N4C8": "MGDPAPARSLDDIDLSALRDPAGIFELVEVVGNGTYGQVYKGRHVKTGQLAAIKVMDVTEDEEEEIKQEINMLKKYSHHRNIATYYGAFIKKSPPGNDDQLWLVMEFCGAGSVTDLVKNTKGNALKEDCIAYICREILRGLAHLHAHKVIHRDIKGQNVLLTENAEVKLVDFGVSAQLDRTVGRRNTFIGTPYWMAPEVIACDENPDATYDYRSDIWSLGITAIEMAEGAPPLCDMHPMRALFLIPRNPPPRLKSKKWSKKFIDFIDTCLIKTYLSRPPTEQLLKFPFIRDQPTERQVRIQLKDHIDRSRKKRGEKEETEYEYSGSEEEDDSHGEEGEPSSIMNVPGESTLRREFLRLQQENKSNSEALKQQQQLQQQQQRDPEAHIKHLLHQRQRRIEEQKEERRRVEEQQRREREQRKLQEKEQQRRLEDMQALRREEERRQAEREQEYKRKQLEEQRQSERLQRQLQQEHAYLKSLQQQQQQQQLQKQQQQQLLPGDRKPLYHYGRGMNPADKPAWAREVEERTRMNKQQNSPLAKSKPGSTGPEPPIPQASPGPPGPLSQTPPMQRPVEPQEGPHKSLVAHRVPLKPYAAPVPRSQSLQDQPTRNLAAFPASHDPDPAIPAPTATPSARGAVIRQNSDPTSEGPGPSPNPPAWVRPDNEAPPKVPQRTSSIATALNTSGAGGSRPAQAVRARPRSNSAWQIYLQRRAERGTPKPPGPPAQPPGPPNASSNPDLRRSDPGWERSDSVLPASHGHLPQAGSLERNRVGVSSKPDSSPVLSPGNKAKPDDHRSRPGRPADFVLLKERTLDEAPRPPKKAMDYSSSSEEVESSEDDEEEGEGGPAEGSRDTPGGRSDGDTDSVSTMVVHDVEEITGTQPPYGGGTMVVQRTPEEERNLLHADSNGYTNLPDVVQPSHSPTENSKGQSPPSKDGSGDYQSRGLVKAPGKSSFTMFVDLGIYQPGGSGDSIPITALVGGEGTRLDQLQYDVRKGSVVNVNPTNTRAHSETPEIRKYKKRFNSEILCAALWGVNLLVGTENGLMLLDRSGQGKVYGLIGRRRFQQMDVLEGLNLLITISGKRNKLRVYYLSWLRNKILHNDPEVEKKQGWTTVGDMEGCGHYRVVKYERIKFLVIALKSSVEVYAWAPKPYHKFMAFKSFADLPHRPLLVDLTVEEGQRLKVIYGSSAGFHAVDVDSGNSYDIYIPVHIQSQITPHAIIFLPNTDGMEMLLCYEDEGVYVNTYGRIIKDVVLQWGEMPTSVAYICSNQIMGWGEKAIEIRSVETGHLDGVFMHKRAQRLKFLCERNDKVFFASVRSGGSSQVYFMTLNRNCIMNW", "UniProt Q5VT25": "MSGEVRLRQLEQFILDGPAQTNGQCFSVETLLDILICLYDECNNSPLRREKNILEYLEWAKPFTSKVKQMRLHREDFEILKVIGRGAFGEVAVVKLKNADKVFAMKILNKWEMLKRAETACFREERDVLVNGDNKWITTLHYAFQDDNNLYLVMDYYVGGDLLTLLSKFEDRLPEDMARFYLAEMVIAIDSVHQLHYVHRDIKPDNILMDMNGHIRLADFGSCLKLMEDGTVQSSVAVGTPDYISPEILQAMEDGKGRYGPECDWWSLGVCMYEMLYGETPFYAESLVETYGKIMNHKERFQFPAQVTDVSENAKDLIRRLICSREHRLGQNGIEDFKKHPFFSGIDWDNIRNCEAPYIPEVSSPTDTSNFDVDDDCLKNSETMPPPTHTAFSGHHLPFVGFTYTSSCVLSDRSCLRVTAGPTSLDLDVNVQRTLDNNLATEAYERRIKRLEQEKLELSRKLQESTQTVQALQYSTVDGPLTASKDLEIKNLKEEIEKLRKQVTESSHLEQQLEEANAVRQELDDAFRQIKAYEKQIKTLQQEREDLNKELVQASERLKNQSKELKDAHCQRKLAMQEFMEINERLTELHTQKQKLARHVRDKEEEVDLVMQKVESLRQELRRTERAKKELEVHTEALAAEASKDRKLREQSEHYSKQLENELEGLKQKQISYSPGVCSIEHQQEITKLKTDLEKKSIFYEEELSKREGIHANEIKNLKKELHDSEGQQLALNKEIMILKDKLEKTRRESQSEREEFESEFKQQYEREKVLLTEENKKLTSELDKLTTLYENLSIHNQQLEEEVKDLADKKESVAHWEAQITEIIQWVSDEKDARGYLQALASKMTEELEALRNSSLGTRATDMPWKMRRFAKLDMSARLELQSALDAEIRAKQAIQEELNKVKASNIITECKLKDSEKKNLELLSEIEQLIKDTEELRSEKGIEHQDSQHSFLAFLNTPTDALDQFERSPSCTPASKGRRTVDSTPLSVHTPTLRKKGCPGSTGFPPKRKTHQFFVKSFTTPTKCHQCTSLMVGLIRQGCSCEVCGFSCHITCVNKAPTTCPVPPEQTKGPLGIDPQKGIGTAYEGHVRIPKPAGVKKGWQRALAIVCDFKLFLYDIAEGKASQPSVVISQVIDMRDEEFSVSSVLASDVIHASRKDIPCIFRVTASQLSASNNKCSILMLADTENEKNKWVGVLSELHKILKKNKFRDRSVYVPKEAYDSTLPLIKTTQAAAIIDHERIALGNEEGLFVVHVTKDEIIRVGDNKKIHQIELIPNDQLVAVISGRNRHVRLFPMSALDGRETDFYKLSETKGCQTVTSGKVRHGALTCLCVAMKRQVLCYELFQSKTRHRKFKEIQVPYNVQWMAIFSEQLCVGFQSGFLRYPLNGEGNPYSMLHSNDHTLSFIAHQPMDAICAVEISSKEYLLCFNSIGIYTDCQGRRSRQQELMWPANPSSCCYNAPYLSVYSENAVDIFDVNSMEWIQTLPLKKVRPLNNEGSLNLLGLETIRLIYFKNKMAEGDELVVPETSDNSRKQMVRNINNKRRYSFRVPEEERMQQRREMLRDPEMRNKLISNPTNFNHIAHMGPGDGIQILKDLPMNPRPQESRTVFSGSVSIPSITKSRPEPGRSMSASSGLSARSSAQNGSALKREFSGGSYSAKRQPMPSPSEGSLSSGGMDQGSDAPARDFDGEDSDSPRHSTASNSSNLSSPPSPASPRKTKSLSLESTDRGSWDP", "UniProt Q9UPE1, whole entry": "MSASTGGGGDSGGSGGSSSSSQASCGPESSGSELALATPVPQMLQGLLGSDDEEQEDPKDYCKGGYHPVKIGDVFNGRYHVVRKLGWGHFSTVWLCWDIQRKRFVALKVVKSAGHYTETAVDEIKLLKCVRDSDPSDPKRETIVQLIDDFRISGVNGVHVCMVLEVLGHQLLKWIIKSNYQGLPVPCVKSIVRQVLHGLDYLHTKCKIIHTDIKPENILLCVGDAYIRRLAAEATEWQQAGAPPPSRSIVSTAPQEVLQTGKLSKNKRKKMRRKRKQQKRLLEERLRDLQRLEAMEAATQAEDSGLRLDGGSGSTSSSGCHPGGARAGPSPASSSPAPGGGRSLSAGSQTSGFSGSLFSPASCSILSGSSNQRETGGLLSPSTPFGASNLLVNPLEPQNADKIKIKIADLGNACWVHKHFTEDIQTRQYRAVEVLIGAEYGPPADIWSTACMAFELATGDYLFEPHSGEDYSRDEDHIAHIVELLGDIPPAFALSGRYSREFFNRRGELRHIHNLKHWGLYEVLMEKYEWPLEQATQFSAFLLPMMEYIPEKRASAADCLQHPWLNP", "UniProt Q13043": "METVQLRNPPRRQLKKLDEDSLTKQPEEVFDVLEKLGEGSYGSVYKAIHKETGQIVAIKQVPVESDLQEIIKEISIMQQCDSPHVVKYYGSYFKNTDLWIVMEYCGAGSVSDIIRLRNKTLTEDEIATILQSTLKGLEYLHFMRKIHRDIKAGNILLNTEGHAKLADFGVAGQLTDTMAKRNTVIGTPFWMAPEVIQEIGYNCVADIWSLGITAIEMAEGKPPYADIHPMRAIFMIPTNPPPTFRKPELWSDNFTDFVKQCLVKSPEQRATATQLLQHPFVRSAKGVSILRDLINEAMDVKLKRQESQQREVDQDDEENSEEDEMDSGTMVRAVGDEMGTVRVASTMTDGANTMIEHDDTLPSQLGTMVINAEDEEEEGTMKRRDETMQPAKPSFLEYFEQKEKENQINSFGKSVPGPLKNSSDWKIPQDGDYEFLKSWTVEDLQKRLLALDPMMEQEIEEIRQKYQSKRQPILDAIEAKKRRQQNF", "UniProt Q13188": "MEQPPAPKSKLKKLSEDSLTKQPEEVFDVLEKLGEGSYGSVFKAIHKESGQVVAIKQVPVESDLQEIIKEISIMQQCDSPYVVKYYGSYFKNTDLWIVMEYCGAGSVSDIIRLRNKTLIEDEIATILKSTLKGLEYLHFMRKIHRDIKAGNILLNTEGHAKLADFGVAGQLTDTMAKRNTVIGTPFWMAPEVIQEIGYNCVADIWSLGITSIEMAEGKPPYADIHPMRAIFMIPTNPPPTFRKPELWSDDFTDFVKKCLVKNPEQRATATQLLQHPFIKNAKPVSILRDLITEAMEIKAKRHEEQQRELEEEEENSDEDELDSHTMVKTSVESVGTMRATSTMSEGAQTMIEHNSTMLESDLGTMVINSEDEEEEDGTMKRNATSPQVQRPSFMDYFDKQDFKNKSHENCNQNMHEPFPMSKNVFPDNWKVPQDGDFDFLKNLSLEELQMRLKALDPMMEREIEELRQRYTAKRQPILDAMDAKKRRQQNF"}, "source": "ChEMBL document CHEMBL2218924", "about": "“A broad activity screen in support of a chemogenomic map for kinase signalling research and drug discovery” (Biochem J, 2013)", "key": {"[1]": {"molecular_target": "Mitogen-activated protein kinase 10 (Homo sapiens) (UniProt P53779)", "conditions": "at 1 µM"}, "[2]": {"molecular_target": "Mitogen-activated protein kinase 10 (Homo sapiens) (UniProt P53779)", "conditions": "at 10 µM"}, "[3]": {"molecular_target": "Vascular endothelial growth factor receptor 2 (Homo sapiens) (UniProt P35968)", "conditions": "at 1 µM"}, "[4]": {"molecular_target": "Vascular endothelial growth factor receptor 2 (Homo sapiens) (UniProt P35968)", "conditions": "at 10 µM"}, "[5]": {"molecular_target": "LIM domain kinase 1 (Homo sapiens) (UniProt P53667)", "conditions": "at 1 µM"}, "[6]": {"molecular_target": "LIM domain kinase 1 (Homo sapiens) (UniProt P53667)", "conditions": "at 10 µM"}, "[7]": {"molecular_target": "Serine/threonine-protein kinase STK11 (Homo sapiens) (UniProt Q15831)", "conditions": "at 1 µM"}, "[8]": {"molecular_target": "Serine/threonine-protein kinase STK11 (Homo sapiens) (UniProt Q15831)", "conditions": "at 10 µM"}, "[9]": {"molecular_target": "Serine/threonine-protein kinase 10 (Homo sapiens) (UniProt O94804)", "conditions": "at 1 µM"}, "[10]": {"molecular_target": "Serine/threonine-protein kinase 10 (Homo sapiens) (UniProt O94804)", "conditions": "at 10 µM"}, "[11]": {"molecular_target": "Tyrosine-protein kinase Lck (Homo sapiens) (UniProt P06239)", "conditions": "at 1 µM"}, "[12]": {"molecular_target": "Tyrosine-protein kinase Lck (Homo sapiens) (UniProt P06239)", "conditions": "at 10 µM"}, "[13]": {"molecular_target": "Tyrosine-protein kinase Lck (Homo sapiens) (UniProt P06239)", "conditions": "at 1 µM", "remark": "listed apart in the source"}, "[14]": {"molecular_target": "Tyrosine-protein kinase Lck (Homo sapiens) (UniProt P06239)", "conditions": "at 10 µM", "remark": "listed apart in the source"}, "[15]": {"molecular_target": "Tyrosine-protein kinase Lyn (Homo sapiens) (UniProt P07948)", "conditions": "at 1 µM"}, "[16]": {"molecular_target": "Tyrosine-protein kinase Lyn (Homo sapiens) (UniProt P07948)", "conditions": "at 10 µM"}, "[17]": {"molecular_target": "Mitogen-activated protein kinase 3 (Homo sapiens) (UniProt P27361)", "conditions": "at 1 µM"}, "[18]": {"molecular_target": "Mitogen-activated protein kinase 3 (Homo sapiens) (UniProt P27361)", "conditions": "at 10 µM"}, "[19]": {"molecular_target": "Mitogen-activated protein kinase 1 (Homo sapiens) (UniProt P28482)", "conditions": "at 1 µM"}, "[20]": {"molecular_target": "Mitogen-activated protein kinase 1 (Homo sapiens) (UniProt P28482)", "conditions": "at 10 µM"}, "[21]": {"molecular_target": "MAP kinase-activated protein kinase 2 (Homo sapiens) (UniProt P49137)", "conditions": "at 1 µM"}, "[22]": {"molecular_target": "MAP kinase-activated protein kinase 2 (Homo sapiens) (UniProt P49137)", "conditions": "at 10 µM"}, "[23]": {"molecular_target": "MAP kinase-activated protein kinase 3 (Homo sapiens) (UniProt Q16644)", "conditions": "at 1 µM"}, "[24]": {"molecular_target": "MAP kinase-activated protein kinase 3 (Homo sapiens) (UniProt Q16644)", "conditions": "at 10 µM"}, "[25]": {"molecular_target": "Serine/threonine-protein kinase MARK1 (Homo sapiens) (UniProt Q9P0L2)", "conditions": "at 1 µM"}, "[26]": {"molecular_target": "Serine/threonine-protein kinase MARK1 (Homo sapiens) (UniProt Q9P0L2)", "conditions": "at 10 µM"}, "[27]": {"molecular_target": "Dual specificity mitogen-activated protein kinase kinase 1 (Homo sapiens) (UniProt Q02750)", "conditions": "at 1 µM"}, "[28]": {"molecular_target": "Dual specificity mitogen-activated protein kinase kinase 1 (Homo sapiens) (UniProt Q02750)", "conditions": "at 10 µM"}, "[29]": {"molecular_target": "Maternal embryonic leucine zipper kinase (Homo sapiens) (UniProt Q14680)", "conditions": "at 1 µM"}, "[30]": {"molecular_target": "Maternal embryonic leucine zipper kinase (Homo sapiens) (UniProt Q14680)", "conditions": "at 10 µM"}, "[31]": {"molecular_target": "Misshapen-like kinase 1 (Homo sapiens) (UniProt Q8N4C8)", "conditions": "at 1 µM"}, "[32]": {"molecular_target": "Misshapen-like kinase 1 (Homo sapiens) (UniProt Q8N4C8)", "conditions": "at 10 µM"}, "[33]": {"molecular_target": "Dual specificity mitogen-activated protein kinase kinase 6 (Homo sapiens) (UniProt P52564)", "conditions": "at 1 µM"}, "[34]": {"molecular_target": "Dual specificity mitogen-activated protein kinase kinase 6 (Homo sapiens) (UniProt P52564)", "conditions": "at 10 µM"}, "[35]": {"molecular_target": "Dual specificity mitogen-activated protein kinase kinase 7 (Homo sapiens) (UniProt O14733)", "conditions": "at 1 µM"}, "[36]": {"molecular_target": "Dual specificity mitogen-activated protein kinase kinase 7 (Homo sapiens) (UniProt O14733)", "conditions": "at 10 µM"}, "[37]": {"molecular_target": "Myosin light chain kinase, smooth muscle (Homo sapiens) (UniProt Q15746)", "conditions": "at 1 µM"}, "[38]": {"molecular_target": "Myosin light chain kinase, smooth muscle (Homo sapiens) (UniProt Q15746)", "conditions": "at 10 µM"}, "[39]": {"molecular_target": "Mitogen-activated protein kinase kinase kinase 9 (Homo sapiens) (UniProt P80192)", "conditions": "at 1 µM"}, "[40]": {"molecular_target": "Mitogen-activated protein kinase kinase kinase 9 (Homo sapiens) (UniProt P80192)", "conditions": "at 10 µM"}, "[41]": {"molecular_target": "Serine/threonine-protein kinase MRCK alpha (Homo sapiens) (UniProt Q5VT25)", "conditions": "at 1 µM"}, "[42]": {"molecular_target": "Serine/threonine-protein kinase MRCK alpha (Homo sapiens) (UniProt Q5VT25)", "conditions": "at 10 µM"}, "[43]": {"molecular_target": "Serine/threonine-protein kinase MRCK beta (Homo sapiens) (UniProt Q9Y5S2)", "conditions": "at 1 µM"}, "[44]": {"molecular_target": "Serine/threonine-protein kinase MRCK beta (Homo sapiens) (UniProt Q9Y5S2)", "conditions": "at 10 µM"}, "[45]": {"molecular_target": "Ribosomal protein S6 kinase alpha-5 (Homo sapiens) (UniProt O75582)", "conditions": "at 1 µM"}, "[46]": {"molecular_target": "Ribosomal protein S6 kinase alpha-5 (Homo sapiens) (UniProt O75582)", "conditions": "at 10 µM"}, "[47]": {"molecular_target": "Ribosomal protein S6 kinase alpha-4 (Homo sapiens) (UniProt O75676)", "conditions": "at 1 µM"}, "[48]": {"molecular_target": "Ribosomal protein S6 kinase alpha-4 (Homo sapiens) (UniProt O75676)", "conditions": "at 10 µM"}, "[49]": {"molecular_target": "SRSF protein kinase 3 (Homo sapiens) (UniProt Q9UPE1)", "conditions": "at 1 µM"}, "[50]": {"molecular_target": "SRSF protein kinase 3 (Homo sapiens) (UniProt Q9UPE1)", "conditions": "at 10 µM"}, "[51]": {"molecular_target": "Serine/threonine-protein kinase 4 (Homo sapiens) (UniProt Q13043)", "conditions": "at 1 µM"}, "[52]": {"molecular_target": "Serine/threonine-protein kinase 4 (Homo sapiens) (UniProt Q13043)", "conditions": "at 10 µM"}, "[53]": {"molecular_target": "Serine/threonine-protein kinase 3 (Homo sapiens) (UniProt Q13188)", "conditions": "at 1 µM"}, "[54]": {"molecular_target": "Serine/threonine-protein kinase 3 (Homo sapiens) (UniProt Q13188)", "conditions": "at 10 µM"}, "[55]": {"molecular_target": "Serine/threonine-protein kinase 24 (Homo sapiens) (UniProt Q9Y6E0)", "conditions": "at 1 µM"}, "[56]": {"molecular_target": "Serine/threonine-protein kinase 24 (Homo sapiens) (UniProt Q9Y6E0)", "conditions": "at 10 µM"}}, "note": "For some assays here: This list holds what a sample rich in strong results left over. This is a selection; strong and weak results do not stand in their true shares.", "data": [{"smiles": "O=C1Nc2ccc(-c3cccnc3)cc2/C1=C\\c1ccc[nH]1", "values": [{"measurement": "residual activity", "setting": "[1]", "value": 18, "unit": "%"}, {"measurement": "residual activity", "setting": "[2]", "value": -2, "unit": "%"}, {"measurement": "residual activity", "setting": "[3]", "value": 5, "unit": "%"}, {"measurement": "residual activity", "setting": "[4]", "value": 1, "unit": "%"}, {"measurement": "residual activity", "setting": "[5]", "value": 83, "unit": "%"}, {"measurement": "residual activity", "setting": "[6]", "value": 22, "unit": "%"}, {"measurement": "residual activity", "setting": "[7]", "value": 90, "unit": "%"}, {"measurement": "residual activity", "setting": "[8]", "value": 55, "unit": "%"}, {"measurement": "residual activity", "setting": "[9]", "value": 8, "unit": "%"}, {"measurement": "residual activity", "setting": "[10]", "value": 1, "unit": "%"}, {"measurement": "residual activity", "setting": "[11]", "value": 38, "unit": "%"}, {"measurement": "residual activity", "setting": "[12]", "value": 7, "unit": "%"}, {"measurement": "residual activity", "setting": "[13]", "value": 33, "unit": "%"}, {"measurement": "residual activity", "setting": "[14]", "value": 10, "unit": "%"}, {"measurement": "residual activity", "setting": "[15]", "value": 10, "unit": "%"}, {"measurement": "residual activity", "setting": "[16]", "value": 4, "unit": "%"}, {"measurement": "residual activity", "setting": "[17]", "value": 25, "unit": "%"}, {"measurement": "residual activity", "setting": "[18]", "value": 1, "unit": "%"}, {"measurement": "residual activity", "setting": "[19]", "value": 65, "unit": "%"}, {"measurement": "residual activity", "setting": "[20]", "value": 14, "unit": "%"}, {"measurement": "residual activity", "setting": "[21]", "value": 83, "unit": "%"}, {"measurement": "residual activity", "setting": "[22]", "value": 52, "unit": "%"}, {"measurement": "residual activity", "setting": "[23]", "value": 116, "unit": "%"}, {"measurement": "residual activity", "setting": "[24]", "value": 74, "unit": "%"}, {"measurement": "residual activity", "setting": "[25]", "value": 1, "unit": "%"}, {"measurement": "residual activity", "setting": "[26]", "value": 0, "unit": "%"}, {"measurement": "residual activity", "setting": "[27]", "value": 9, "unit": "%"}, {"measurement": "residual activity", "setting": "[28]", "value": 5, "unit": "%"}, {"measurement": "residual activity", "setting": "[29]", "value": 4, "unit": "%"}, {"measurement": "residual activity", "setting": "[30]", "value": 1, "unit": "%"}, {"measurement": "residual activity", "setting": "[31]", "value": 6, "unit": "%"}, {"measurement": "residual activity", "setting": "[32]", "value": 1, "unit": "%"}, {"measurement": "residual activity", "setting": "[33]", "value": 22, "unit": "%"}, {"measurement": "residual activity", "setting": "[34]", "value": 3, "unit": "%"}, {"measurement": "residual activity", "setting": "[35]", "value": 70, "unit": "%"}, {"measurement": "residual activity", "setting": "[36]", "value": 19, "unit": "%"}, {"measurement": "residual activity", "setting": "[37]", "value": 23, "unit": "%"}, {"measurement": "residual activity", "setting": "[38]", "value": 4, "unit": "%"}, {"measurement": "residual activity", "setting": "[39]", "value": 6, "unit": "%"}, {"measurement": "residual activity", "setting": "[40]", "value": 2, "unit": "%"}, {"measurement": "residual activity", "setting": "[41]", "value": 95, "unit": "%"}, {"measurement": "residual activity", "setting": "[42]", "value": 52, "unit": "%"}, {"measurement": "residual activity", "setting": "[43]", "value": 66, "unit": "%"}, {"measurement": "residual activity", "setting": "[44]", "value": 21, "unit": "%"}, {"measurement": "residual activity", "setting": "[45]", "value": 60, "unit": "%"}, {"measurement": "residual activity", "setting": "[46]", "value": 10, "unit": "%"}, {"measurement": "residual activity", "setting": "[47]", "value": 23, "unit": "%"}, {"measurement": "residual activity", "setting": "[48]", "value": 4, "unit": "%"}, {"measurement": "residual activity", "setting": "[49]", "value": 91, "unit": "%"}, {"measurement": "residual activity", "setting": "[50]", "value": 57, "unit": "%"}, {"measurement": "residual activity", "setting": "[51]", "value": 2, "unit": "%"}, {"measurement": "residual activity", "setting": "[52]", "value": 4, "unit": "%"}, {"measurement": "residual activity", "setting": "[53]", "value": 5, "unit": "%"}, {"measurement": "residual activity", "setting": "[54]", "value": 0, "unit": "%"}, {"measurement": "residual activity", "setting": "[55]", "value": 12, "unit": "%"}, {"measurement": "residual activity", "setting": "[56]", "value": 1, "unit": "%"}]}]}
